Paper PMC10828586
Positions count from the first letter of the chain named. Names and notes keep the numbering of the source. No constants are given. Whether binding was seen depends on the method and setting. In cells and extracts the contact can be indirect. Some binding calls cover weakened binding; strength is not graded here.

Chains of the proteins cited; added tags and fusions are not shown.
UniProt Q9DBL9: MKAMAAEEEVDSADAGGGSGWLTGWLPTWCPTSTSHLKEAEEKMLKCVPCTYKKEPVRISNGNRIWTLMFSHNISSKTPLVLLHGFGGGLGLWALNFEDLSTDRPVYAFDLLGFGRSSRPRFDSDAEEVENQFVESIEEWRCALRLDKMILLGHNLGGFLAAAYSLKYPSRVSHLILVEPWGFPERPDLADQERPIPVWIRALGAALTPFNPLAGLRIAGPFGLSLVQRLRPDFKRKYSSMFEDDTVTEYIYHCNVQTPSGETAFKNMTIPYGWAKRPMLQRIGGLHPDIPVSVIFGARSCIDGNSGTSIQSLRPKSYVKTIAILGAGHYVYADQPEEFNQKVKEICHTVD

B1: Xpress-mATGL288, WT (truncated after residue 288) (domain or fragment, UniProt Q8BJ56 1-288)
chain: MFPRETKWNISFAGCGFLGVYHIGVASCLREHAPFLVANATHIYGASAGALTATALVTGACLGEAGANIIEVSKEARKRFLGPLHPSFNLVKTIRGCLLKTLPADCHERANGRLGISLTRVSDGENVIISHFSSKDELIQANVCSTFIPVYCGLIPPTLQGVRYVDGGISDNLPLYELKNTITVSPFSGESDICPQDSSTNIHELRVTNTSIQFNLRNLYRLSKALFPPEPMVLREMCKQGYRDGLRFLRRNGLLNQPNPLLALPPVVPQEEDAEEAAVVEERAGEED
B2: Xpress-mATGL288 N209A/I212A/N215A (domain or fragment, UniProt Q8BJ56 1-288)
chain: B1 chain with N209A, I212A, N215A
B3: Xpress-mATGL, full-length, N209A/N215A (protein, UniProt Q8BJ56 1-486)
chain: MFPRETKWNISFAGCGFLGVYHIGVASCLREHAPFLVANATHIYGASAGALTATALVTGACLGEAGANIIEVSKEARKRFLGPLHPSFNLVKTIRGCLLKTLPADCHERANGRLGISLTRVSDGENVIISHFSSKDELIQANVCSTFIPVYCGLIPPTLQGVRYVDGGISDNLPLYELKNTITVSPFSGESDICPQDSSTNIHELRVTATSIQFALRNLYRLSKALFPPEPMVLREMCKQGYRDGLRFLRRNGLLNQPNPLLALPPVVPQEEDAEEAAVVEERAGEEDQLQPYRKDRILEHLPARLNEALLEACVEPKDLMTTLSNMLPVRLATAMMVPYTLPLESAVSFTIRLLEWLPDVPEDIRWMKEQTGSICQYLVMRAKRKLGDHLPSRLSEQVELRRAQSLPSVPLSCATYSEALPNWVRNNLSLGDALAKWEECQRQLLLGLFCTNVAFPPDALRMRAPASPTAADPATPQDPPGLPPC
B4: Xpress-mATGL, full-length, N215A (protein, UniProt Q8BJ56 1-486)
chain: B3 chain with A209N
B5: Xpress-mATGL, full-length, N209A (protein, UniProt Q8BJ56 1-486)
chain: B3 chain with A215N
B6: Xpress-mATGL, full-length, N209A/I212A/N215A (protein, UniProt Q8BJ56 1-486)
chain: B3 chain with I212A
B7: Xpress-mATGL, full-length, I212A (protein, UniProt Q8BJ56 1-486)
chain: B3 chain with A209N, I212A, A215N

Target: FLAG-mCGI-58 (mouse) (UniProt Q9DBL9)
Experiment: co-IP; HEK293T cotransfected with FLAG-mCGI-58 and Xpress-mATGL variants; lysis in 50 mM Tris-HCl pH 7.4, 150 mM NaCl, 1% NP-40, 1 mM EDTA; 2 mg lysate on Anti-FLAG M2 affinity gel, 4°C, 3 h; immunoblot with anti-Xpress and anti-FLAG

binding, binds:
B1
B2
B3
B4
B5
B6
B7
